Results are given in words; binding and its absence hold for the method and conditions named. Binding seen in cells or lysates may run through a third protein. Some entries that bind do so weakly or less than the wild type.
Tests used:
[1] = target: 6×His-tagged TOP1 (topoisomerase I) (human) (UniProt P11387); test: proximity ligation; Duolink PLA in fixed, permeabilised transfected cells; cells treated with PARPi as well
[2] = target: 6×His-tagged TOP1 (topoisomerase I) (human) (UniProt P11387); test: proximity ligation; Duolink PLA in fixed, permeabilised transfected cells; cells treated with CPT, PARGi or both
[3] = target: 6×His-tagged TOP1 (topoisomerase I) (human) (UniProt P11387); test: pull-down; His-tag pulldown with Ni-NTA agarose under native conditions from transfected HEK293 lysate treated with benzonase, 10 mM imidazole, overnight 4 °C; cells untreated or treated with CPT, PARGi, PARPi
[4] = target: PSMD14-FLAG (UniProt O00487); test: co-IP; anti-FLAG M2 IP from transfected HEK293 lysate treated with benzonase, washed with RIPA buffer; cells untreated or treated with CPT (20 µM, 30 min)

Protein sequences, listed by entry. Tags and fused reporters are not part of them.
UniProt P11387: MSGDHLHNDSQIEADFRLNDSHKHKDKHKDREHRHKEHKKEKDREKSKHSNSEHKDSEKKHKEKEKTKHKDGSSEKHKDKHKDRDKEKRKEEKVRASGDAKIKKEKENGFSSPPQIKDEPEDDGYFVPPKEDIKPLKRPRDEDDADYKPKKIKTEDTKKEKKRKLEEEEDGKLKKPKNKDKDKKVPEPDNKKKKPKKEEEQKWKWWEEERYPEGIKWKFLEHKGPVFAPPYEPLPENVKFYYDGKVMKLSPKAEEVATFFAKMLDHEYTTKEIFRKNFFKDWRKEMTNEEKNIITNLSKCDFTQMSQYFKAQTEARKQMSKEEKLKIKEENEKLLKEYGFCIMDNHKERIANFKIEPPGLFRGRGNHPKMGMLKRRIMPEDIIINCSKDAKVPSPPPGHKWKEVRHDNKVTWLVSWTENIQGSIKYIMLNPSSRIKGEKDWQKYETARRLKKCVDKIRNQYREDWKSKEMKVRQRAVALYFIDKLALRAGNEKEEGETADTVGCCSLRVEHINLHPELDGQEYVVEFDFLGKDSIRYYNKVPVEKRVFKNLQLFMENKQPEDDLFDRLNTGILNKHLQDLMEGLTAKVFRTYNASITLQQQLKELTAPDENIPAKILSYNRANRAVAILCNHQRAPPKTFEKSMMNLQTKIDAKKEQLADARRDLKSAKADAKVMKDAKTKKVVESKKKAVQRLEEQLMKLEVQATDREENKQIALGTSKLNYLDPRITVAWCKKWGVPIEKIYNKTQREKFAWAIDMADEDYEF
UniProt O00487: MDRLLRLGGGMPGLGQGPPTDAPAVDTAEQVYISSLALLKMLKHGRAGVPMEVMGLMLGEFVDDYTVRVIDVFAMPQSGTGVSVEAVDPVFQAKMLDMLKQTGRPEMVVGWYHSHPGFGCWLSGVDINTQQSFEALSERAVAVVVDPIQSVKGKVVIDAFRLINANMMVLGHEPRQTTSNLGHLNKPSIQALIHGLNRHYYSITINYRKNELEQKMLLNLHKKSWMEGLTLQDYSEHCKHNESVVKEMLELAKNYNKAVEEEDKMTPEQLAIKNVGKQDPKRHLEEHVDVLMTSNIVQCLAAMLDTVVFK
UniProt Q93009: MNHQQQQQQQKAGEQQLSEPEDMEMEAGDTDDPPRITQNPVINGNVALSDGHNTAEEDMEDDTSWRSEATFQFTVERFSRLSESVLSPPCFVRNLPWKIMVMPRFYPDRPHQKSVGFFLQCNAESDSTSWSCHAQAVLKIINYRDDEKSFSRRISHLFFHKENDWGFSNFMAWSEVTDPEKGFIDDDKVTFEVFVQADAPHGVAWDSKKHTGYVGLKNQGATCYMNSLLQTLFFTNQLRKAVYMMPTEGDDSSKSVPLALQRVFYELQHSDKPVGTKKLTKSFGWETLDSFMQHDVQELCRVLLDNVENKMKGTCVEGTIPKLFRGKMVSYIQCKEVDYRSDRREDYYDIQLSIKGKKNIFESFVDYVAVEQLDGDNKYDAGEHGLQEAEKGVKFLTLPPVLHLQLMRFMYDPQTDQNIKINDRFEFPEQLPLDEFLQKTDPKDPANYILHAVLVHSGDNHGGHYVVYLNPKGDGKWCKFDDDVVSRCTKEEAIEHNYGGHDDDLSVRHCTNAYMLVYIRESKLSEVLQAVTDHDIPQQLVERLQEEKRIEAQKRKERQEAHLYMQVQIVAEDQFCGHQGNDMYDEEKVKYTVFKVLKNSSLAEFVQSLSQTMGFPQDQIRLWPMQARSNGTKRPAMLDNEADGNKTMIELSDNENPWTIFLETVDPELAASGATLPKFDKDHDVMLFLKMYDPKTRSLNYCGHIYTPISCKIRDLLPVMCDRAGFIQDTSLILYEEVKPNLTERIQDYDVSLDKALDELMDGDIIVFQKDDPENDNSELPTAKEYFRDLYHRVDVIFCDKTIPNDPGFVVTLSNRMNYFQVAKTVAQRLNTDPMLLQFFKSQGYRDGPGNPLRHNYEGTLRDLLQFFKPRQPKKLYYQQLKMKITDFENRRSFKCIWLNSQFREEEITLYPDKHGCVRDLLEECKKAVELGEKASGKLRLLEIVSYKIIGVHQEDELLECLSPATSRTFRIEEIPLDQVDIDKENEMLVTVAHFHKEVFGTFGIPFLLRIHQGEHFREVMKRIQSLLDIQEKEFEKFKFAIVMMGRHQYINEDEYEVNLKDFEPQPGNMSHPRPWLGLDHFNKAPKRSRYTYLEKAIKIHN

With “FLAG-USP7 (from UniProt Q93009 1-1102) (enzyme)” the binding [1] was “no binding (condition: cells treated with PARPi)”, the binding [2] was “binds” and the binding [3] was “binds”.

In the case of “TOP1 (topoisomerase I), endogenous (from UniProt P11387 1-765) (enzyme)”, the binding [4] was “binds”.
